Laboratory results taken from patent US5246935A, “Piperazinyl derivatives and methods of treating central nervous system ailments relating to the 5-HT2 receptor system” (Novo Nordisk A/S, priority 1990, dated 1993).

Tested on: acetic acid-induced writhings in mice
Assay: Antagonism of Acetic Acid-Induced Writhings In Mice
Format: in vivo, mouse (NMRI)
Conditions: s.c. 30 min before acetic acid 0.5 per cent i.p.; 50 per cent protection
Method: Antagonism of Acetic Acid-Induced Writhings In Mice
In mice i.p. injection of acetic acid induces a writhing syndrome which is antagonized by analgesics (Siegmund et al., 1957; Eckhardt et al., 1957).
Acetic acid 0.5 per cent is injected i.p. (0.15 ml/10 g body weight) to 6 mice (NMRI, either sex weighing 20-25 g) pretreated with physiological saline (controls) and to 6 mice pretreated with test substance. In the controls acetic acid induces a syndrome characterized by contraction of abdomen, turning of trunk and extension of hind limbs. Saline and test substances are administered s.c. 30 min. before acetic acid. The number of writhings is counted 5-15 min. after injection of acetic acid.
The activity is expressed as per cent protection: [formula]
The effect of active substances is evaluated by a dose response curve, log dose on the abscissa, and per cent protection on the ordinate. The potency is expressed as the dose (ED50 in mg/kg giving 50 per cent protection against writhings.
Analgesics and various other drugs inhibit acetic acidinduced writhings in mice. This test is used as a screening test for analgesics. Additional results from other screening tests are required to exclude active anti-writhing substances without analgesic effect.

## CN1CC[C@]23c4c5ccc(O)c4O[C@H]2[C@@H](O)C=C[C@H]3[C@H]1C5 [Morphine, reference compound]
  Antagonism of acetic acid-induced writhings in mice, ED50: 0.26 mg/kg
